Measured values published in publication PMC7699536.
Positions count from the first letter of the chain named. Results are given in words; binding and its absence hold for the method and conditions named. Binding seen in cells or lysates may run through a third protein. Some binding calls cover weakened binding; strength is not graded here. Where a sequence is shown, tags or fusion partners need not be part of it.

Chains of the proteins cited; added tags and fusions are not shown.
UniProt O43707: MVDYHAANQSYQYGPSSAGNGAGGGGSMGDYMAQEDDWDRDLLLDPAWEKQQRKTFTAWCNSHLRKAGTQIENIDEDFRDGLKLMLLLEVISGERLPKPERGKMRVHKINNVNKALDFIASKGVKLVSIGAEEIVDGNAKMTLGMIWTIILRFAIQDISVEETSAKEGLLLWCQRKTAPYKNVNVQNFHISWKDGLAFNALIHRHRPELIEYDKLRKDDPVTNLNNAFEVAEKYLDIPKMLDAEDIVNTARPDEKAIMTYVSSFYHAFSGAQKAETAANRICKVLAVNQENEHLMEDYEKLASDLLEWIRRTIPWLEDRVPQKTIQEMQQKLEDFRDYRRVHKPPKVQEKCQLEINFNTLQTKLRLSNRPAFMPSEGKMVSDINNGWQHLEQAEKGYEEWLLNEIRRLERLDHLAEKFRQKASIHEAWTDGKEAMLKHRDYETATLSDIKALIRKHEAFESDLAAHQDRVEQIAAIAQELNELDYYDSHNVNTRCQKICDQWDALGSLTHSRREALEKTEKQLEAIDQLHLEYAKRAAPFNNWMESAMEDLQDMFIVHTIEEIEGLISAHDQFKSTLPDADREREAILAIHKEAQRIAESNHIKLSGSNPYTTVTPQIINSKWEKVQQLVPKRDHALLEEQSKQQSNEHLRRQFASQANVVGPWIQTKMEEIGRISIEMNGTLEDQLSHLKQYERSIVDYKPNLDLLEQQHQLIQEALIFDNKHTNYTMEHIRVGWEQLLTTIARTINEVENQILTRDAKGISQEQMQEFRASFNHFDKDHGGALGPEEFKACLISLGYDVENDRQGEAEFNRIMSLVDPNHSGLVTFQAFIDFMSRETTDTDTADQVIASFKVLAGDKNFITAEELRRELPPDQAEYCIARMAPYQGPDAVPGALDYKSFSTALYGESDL

Tests used:
[1] = biological target: T1, FLAG-SEPT14^A123T (p.Ala123Thr), expressed in HeLa cells (human) (UniProt Q6ZU15); test: co-IP; lysates of HeLa cells transfected with pFLAG-SEPT14 (WT or mutant), IP with FLAG antibody or control IgG, immunoblot with FLAG and ACTN4 antibodies
T1 sequence: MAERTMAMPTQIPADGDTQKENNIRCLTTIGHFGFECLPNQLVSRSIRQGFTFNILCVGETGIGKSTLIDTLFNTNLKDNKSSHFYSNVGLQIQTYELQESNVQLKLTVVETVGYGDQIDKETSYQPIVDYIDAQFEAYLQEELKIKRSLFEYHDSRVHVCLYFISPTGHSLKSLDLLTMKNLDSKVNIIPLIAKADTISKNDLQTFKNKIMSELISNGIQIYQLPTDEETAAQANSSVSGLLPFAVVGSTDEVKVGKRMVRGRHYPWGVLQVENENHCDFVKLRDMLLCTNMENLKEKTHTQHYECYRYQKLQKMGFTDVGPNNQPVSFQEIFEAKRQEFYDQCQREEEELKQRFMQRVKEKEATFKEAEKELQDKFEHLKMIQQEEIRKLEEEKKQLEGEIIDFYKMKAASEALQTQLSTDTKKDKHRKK

[2] = biological target: T2, FLAG-SEPT14 (wild type), expressed in HeLa cells (human) (UniProt Q6ZU15); test: as above
T2 sequence: T1 sequence with T123A

[3] = biological target: T3, FLAG-SEPT14^I333T (p.Ile333Thr), expressed in HeLa cells (human) (UniProt Q6ZU15); test: as above
T3 sequence: T1 sequence with T123A, I333T

[4] = biological target: T4, FLAG-SEPT14 (wild type), expressed in NT2D1 cells (human) (UniProt Q6ZU15); test: co-IP; lysate of NT2D1 cells transfected with pFLAG-SEPT14, IP with FLAG antibody or control IgG, immunoblot with ACTN4 and FLAG antibodies
T4 sequence: T1 sequence with T123A

With “ACTN4 (actinin, alpha 4), endogenous in HeLa cells (from UniProt O43707 1-911)” the binding [1] was “binds”, the binding [2] was “binds” and the binding [3] was “binds”.

For “ACTN4 (actinin, alpha 4), endogenous in NT2D1 cells (from UniProt O43707 1-911)”, the binding [4] was “binds”.
